Data source: PubChem BioAssay AID686943 (Drosophila RNAi Screening Center, 2013)
The screen tested about 23,000 reagents; shown is a random part of those that have a named target and a result. 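Extra replicates exist only for a retested subset of genes; insulin dose and duration not given; both raised and lowered dpERK matter.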 A plus sign joins genes that one reagent is predicted to hit. Further read-outs or replicates are left out here. Not given: the amount of reagent, the time to read-out.

Screen: 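Search across the genome for regulators of signalling from receptor tyrosine kinase to ERK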 (primary screen)
System: Drosophila S2R+ haemocyte-like cells expressing YFP-tagged ERK (Rolled)
Reagents: long dsRNA against Drosophila genes
Treatment: insulin stimulation versus unstimulated cells; dose and duration not given
Measured: 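Antibody staining for doubly phosphorylated ERK divided by ERK-YFP signal, as plate z-scores, in insulin-treated and untreated cells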
Reading the numbers: replicate 1, z-score of dpERK with insulin: higher = more active ERK per ERK-YFP after insulin

What did the screen give for CG11986 [DRSC14461]?
replicate 1, z-score of dpERK with insulin: -0.65

Which result is listed for CG40486 [DRSC20619]?
replicate 1, z-score of dpERK with insulin: -0.9

With SecCl (Secretory chloride channel) [DRSC10887], how do the results read?
replicate 1, z-score of dpERK with insulin: 0.06

Which result is listed for CG14480 [DRSC06452]?
replicate 1, z-score of dpERK with insulin: 0.44

With CG12825 [DRSC06174], what was measured?
replicate 1, z-score of dpERK with insulin: 0.03

What is on record for CG12209 [DRSC06119]?
replicate 1, z-score of dpERK with insulin: 0.14

What did the screen give for ATPsynbeta (ATP synthase, beta subunit) [DRSC17194]?
replicate 1, z-score of dpERK with insulin: 0.14

For Tsp42Ej (Tetraspanin 42Ej) [DRSC06113], how do the results read?
replicate 1, z-score of dpERK with insulin: -0.64

For CG14861 [DRSC14984], how do the results read?
replicate 1, z-score of dpERK with insulin: -0.54

For CG33627 [DRSC05343], what was measured?
replicate 1, z-score of dpERK with insulin: 0.06

What did the screen give for Rab2 [DRSC05017]?
replicate 1, z-score of dpERK with insulin: -0.08

For Ak1 (Adenylate kinase 1) [DRSC10248], what does the deposit list?
replicate 1, z-score of dpERK with insulin: -0.74

With Archease [DRSC16025], how do the results read?
replicate 1, z-score of dpERK with insulin: 0.39

With CG10814 [DRSC06004], how do the results read?
replicate 1, z-score of dpERK with insulin: 0.14

Which result is listed for CG2336 [DRSC12581]?
replicate 1, z-score of dpERK with insulin: 0.86

Quoted from above (5 entries):
CG14480 [DRSC06452] → replicate 1, z-score of dpERK with insulin = 0.44
CG12825 [DRSC06174] → replicate 1, z-score of dpERK with insulin = 0.03
CG12209 [DRSC06119] → replicate 1, z-score of dpERK with insulin = 0.14
ATPsynbeta (ATP synthase, beta subunit) [DRSC17194] → replicate 1, z-score of dpERK with insulin = 0.14
Tsp42Ej (Tetraspanin 42Ej) [DRSC06113] → replicate 1, z-score of dpERK with insulin = -0.64

Continued.
Which result is listed for Ost48 (Oligosaccharyltransferase 48kD subunit) [DRSC18693]?
replicate 1, z-score of dpERK with insulin: 0.2

With CG8093 [DRSC07078], how do the results read?
replicate 1, z-score of dpERK with insulin: 0.22

What is on record for CG14926 [DRSC02409]?
replicate 1, z-score of dpERK with insulin: 1.01

What did the screen give for CG2113 [DRSC08554]?
replicate 1, z-score of dpERK with insulin: -0.05

For Prosbeta4R2 (Proteasome beta4 subunit-related 2) [DRSC00503], what does the deposit list?
replicate 1, z-score of dpERK with insulin: -0.31

For PpV (Protein phosphatase V) [DRSC18700], what does the deposit list?
replicate 1, z-score of dpERK with insulin: -1.17

With Or13a (Odorant receptor 13a) [DRSC20265], what does the deposit list?
replicate 1, z-score of dpERK with insulin: -0.15

For CG4546 [DRSC15593], what was measured?
replicate 1, z-score of dpERK with insulin: 0.08

With CG8677 + CG31626 [DRSC01838], what was measured?
replicate 1, z-score of dpERK with insulin: 2.46

With CG9701 [DRSC11093], what does the deposit list?
replicate 1, z-score of dpERK with insulin: -0.09

For scat (scattered) [DRSC02722], what does the deposit list?
replicate 1, z-score of dpERK with insulin: 0.17

With CG9547 [DRSC03260], what was measured?
replicate 1, z-score of dpERK with insulin: 0.3

With OS9 + Hf [DRSC03392], what was measured?
replicate 1, z-score of dpERK with insulin: 0.96

With alka (alkaliphile) [DRSC06136], how do the results read?
replicate 1, z-score of dpERK with insulin: 0.33

With Fdx1 (Ferredoxin 1) [DRSC11167], how do the results read?
replicate 1, z-score of dpERK with insulin: 0.65

Which result is listed for MED31 (Mediator complex subunit 31) [DRSC12142]?
replicate 1, z-score of dpERK with insulin: 1.51
